From ChEMBL document CHEMBL3988442, “University of Dundee, Small-Polar-MMV Screening Library” (2021).

Mtb growth Cornell: 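Whole-cell assay for inhibitors of Mycobacterium tuberculosis growth, labelled Cornell in the record; the read-out is not stated. The concentration is filed as 10 mM, unlikely as a test dose, so the dose is not known. The record gives no direction; compounds strong in two other growth screens of this library score well above the rest, so higher reads as stronger inhibition. Of about 53,000 compounds tested this way, about 900 (1.7%) reached 50% or more in at least one test.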
Mtb heat-shock: 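Assay on Mycobacterium tuberculosis, filed only as a heat shock assay from Cornell; the read-out is not stated. The concentration is filed as 10 mM, unlikely as a test dose, so the dose is not known. The record gives no direction; compounds that gave an IC50 in retests scored well above the rest, so higher reads as stronger inhibition. Of about 69,000 compounds tested this way, about 930 (1.4%) reached 50% or more in at least one test.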

Results are given as percent effect. The controls that fix the scale are not given in the record; negative values are as filed. Compounds were drawn at random from those tested, without regard to their results. A dash means the value is not listed here; it may have been measured.

Compound | Mtb growth Cornell | Mtb heat-shock
CSCC(=O)N[C@H]1CC[C@H](Nc2nccc(-c3cccnc3)n2)C1 | -15.42 | -29.56
CN(C)CCN1C(=O)CCC12CCCN(C(=O)c1cccnc1)CC2.O=C(O)C(F)(F)F.O=C(O)C(F)(F)F (configuration not stated) | 28.27 | -1.335
Cn1cc(C2CCCN2CCCc2nc(-c3cccs3)no2)cn1 (configuration not stated) | 36.53 | 32.56
O=C(c1cccc2cc[nH]c12)N1CCC2(CCOC2)C1 (configuration not stated) | 0.7985 | -7.692
CSc1nc(C2CC2)nc(C)c1C(=O)NCc1cc(C)on1 | 22.71 | -0.1148
CN(Cc1ccccn1)C(=O)Nc1cc(C(F)(F)F)c[nH]c1=O | - | 6.775
CC(C)c1cc(C(=O)NCC2(C(N)=O)CCOCC2)nn1C(C)(C)C | 18.98 | 11.61
O=C(O)C(F)(F)F.[H][C@@]12CCCO[C@]1([H])[C@H](Oc1ccccn1)CN2S(=O)(=O)CCC | 27.79 | -11.19
Cc1ccccc1OCCCC(=O)N(C)CCC#N | -11.41 | -12.88
Cc1cnn(CC2CCCCN2C(=O)c2ccc(C#N)c(C)n2)c1 (configuration not stated) | -17.32 | 12.43
O=C(c1cnccn1)N1CCC2(CC1)C(=O)NCC2c1ccccc1 (configuration not stated) | 22.79 | -18.84
CCS(=O)(=O)NC1CCCN(c2cc(C)ccc2F)C1=O (configuration not stated) | -23.36 | -43.52
c1cc(CN2CCC(n3cc(CN4CCCC4)nn3)CC2)cs1 | 24.54 | -27.9
Cc1cc(C)n(CC2CN(CC(=O)NC3CCOCC3)CCO2)n1 (configuration not stated) | -34.77 | -16.74
N#Cc1cnn(C(=O)COc2ccccc2F)c1N | 13.9 | 0.7585
COc1cccc(OCCn2c(C)c(C)oc2=O)c1 | - | -10.14
O=C(NC1CCCc2nc(N3CCOCC3)ncc21)C1CCCCC1 (configuration not stated) | -24.25 | -17.24
CS(=O)(=O)N1CC2(CCCN2Cc2ccc(Cl)cc2)Cc2ccccc21 (configuration not stated) | - | -14.15
CC(=O)N[C@H]1C[C@@H](c2nc(-c3ccc4c(c3)OCO4)no2)N(C)C1 | -27.8 | -0.7597
CC(C)C(C)NC(=O)CCN1C(=O)CCc2cc(F)ccc21 (configuration not stated) | -15.76 | -19.43
COCCN1CCN(CC(O)c2ccc(C(F)(F)F)cc2)CC1 (configuration not stated) | 8.187 | -15.36
CCc1ccc(-c2noc(Cn3nc(C(N)=O)ccc3=O)n2)cc1 | -2.394 | 19.51
CCn1c(Cn2cncn2)nnc1C1CCN(Cc2ccc(C)o2)CC1 | 26.37 | -33.62
Cl.Cn1cnc2c(-c3ccccc3)nc(C3CCNCC3)cc21 | -24.61 | -14.44
CC(NC(=O)C(C)(C)C)c1cc(O)nc(-c2cccnc2)n1 (configuration not stated) | 47.54 | 11.04
O=C(NCCc1ccncc1)c1cccc(S(=O)(=O)NC2CC2)c1 | 12.89 | -16.52
C[C@@H](N)C(=O)N1CC2(CCNCC2)c2cc(Cl)ccc21.Cl.Cl | 21.61 | -22.5
CCOc1cccnc1C(=O)N1CCC(c2ccccc2OC)C1 (configuration not stated) | 11.27 | 11.18
CC(NC(=O)NCCn1ccnc1)c1ccc2c(c1)NC(=O)CO2 (configuration not stated) | -11.92 | 10.68
CNc1ncccc1C(=O)N1CCN(Cc2ccc(C)cc2)C(=O)C1C (configuration not stated) | - | -16.85
COC(=O)CNC(=O)c1nc(Br)sc1C(C)C | -12.44 | -21.06
COCc1n[nH]/c(=N/C(=O)COc2cnc(C)cc2O)s1 | 0.7655 | -3.897
O=C(O)C(F)(F)F.[H][C@@]12C[C@H](c3nc(C)cs3)O[C@@]1([H])CCN(Cc1cc(C)on1)C2 | 7.061 | -1.116
CC(CNC(=O)c1ccc(Cl)cc1F)N1CCCC1 (configuration not stated) | - | 2.154
Cc1nc(C(C)(C)C)sc1C(=O)NCCNc1ncccc1C#N | - | 41.85
O=C(NCC1CCCO1)c1nc2c(s1)CCCN2Cc1ccccc1 (configuration not stated) | 3.96 | -0.2112
Cc1nn(C)c(N(C)C)c1CNCc1ccc(OCC(N)=O)cc1.Cl | - | -5.683
CCN1CCCC12CCN(C(=O)c1nccn1C)CC2.O=C(O)C(F)(F)F | -19.3 | -3.662
CC(C)(C)n1ncc2c1CCCC2NCc1ccc2c(c1)OCCO2 (configuration not stated) | - | -18.15
CC(C)C(Sc1nnc(C2CC2)n1C1CC1)C(=O)NCc1cccnc1 (configuration not stated) | -5.831 | 9.055
COc1ccccc1OCCN1CCCC(c2cc(C(N)=O)[nH]n2)C1 (configuration not stated) | - | 12.69
c1ncn(CC2CCCN2Cc2cn3ccsc3n2)n1 (configuration not stated) | -1.283 | -23.29
CC(C)CCNC(=O)C1CCN(c2ccc3nnc(C(C)C)n3n2)CC1 | 11.36 | 20.76
[H][C@]12CN(Cc3cccc(OC)c3F)C[C@]1([H])N(CCOC)C(=O)CO2 | -23.69 | -6.284
CC(NC(=O)CSCC#N)c1cccc(NC(=O)c2ccccc2)c1 (configuration not stated) | 15.02 | -4.181
c1ccc(CN2CCCC(Cn3cncn3)C2)nc1 (configuration not stated) | - | -18.66
[H][C@@]12CS(=O)(=O)C[C@]1([H])N(C(=O)c1csc(C)n1)CCN2S(C)(=O)=O | 24.71 | 0.7248
O=C(CSc1ccccn1)NCc1ccc2c(c1)CCC(=O)N2 | -60.5 | -1.22
O=C(CCc1ccsc1)N1CCC(n2cc(CO)nn2)CC1 | 17.91 | -10.62
OCCn1nccc1C1CCN(CCOc2ccccc2)CC1 | -26.3 | -23.71
Cc1noc(CCCc2nc(C3CCOC3)no2)n1 (configuration not stated) | -27.86 | -19.62
CCN(CC1CCOC1)C(=O)c1cnc2onc(C)c2c1 (configuration not stated) | - | -5.375
Cc1ccc(C(=O)N2CCCCC2CN(C)C)cc1 (configuration not stated) | 15.34 | 1.426
CC(C)(O)CCc1cccc(C(=O)N2Cc3cnn(CCO)c3C2)c1 | - | 6.411
[H][C@@]12CCN(Cc3cc(C)on3)C[C@@]1([H])O[C@@H](c1nccs1)C2 | 8.852 | 1.397
Cc1noc(C2CCC3(CCN(C(=O)C4CCOCC4)CC3)O2)n1 (configuration not stated) | - | -24.77
CCN(C(=O)c1cnc(-c2ccc3c(c2)OCO3)s1)C1CC1 | 6.944 | 6.415
O=C(c1cc(C2CC2)on1)N1CCCC(n2cncn2)C1 (configuration not stated) | -16.8 | 17.16
COc1ccc(C(=O)N2CCN(CCO)CC2)c(F)c1 | - | -1.305
O=C(O)C(F)(F)F.[H][C@@]12CN(Cc3ccc(F)cc3)C[C@]1([H])C(=O)N(CCOC)C2 | -1.085 | 7.394
N#Cc1ccc(CN2CCOCC2)cc1 | -9.511 | 17.16
Cc1ccc(S(=O)(=O)CCC(=O)N(C)Cc2cnn(C)c2)cc1 | -27.71 | -29.89
COC(C(=O)N1CCN(c2cccc(Cl)c2)C(=O)C1)c1ccccc1 (configuration not stated) | - | 0.4002
COC(=O)c1cc2c(=O)n(C3CC3)ccc2nc1C | -14.63 | -0.8278
C=C(C)CN(CC)C(=O)Nc1ccccc1CN(C)C(C)=O | - | -3.991
Cc1cccc2c1nc(CCO)n2-c1ccc(C(=O)N2CCOCC2)o1 | - | -16.78
c1ccc2oc(CCCN3CCOC(Cn4cccn4)C3)nc2c1 (configuration not stated) | - | -44.94

Some entries from above, unchanged:

- Cc1nc(C(C)(C)C)sc1C(=O)NCCNc1ncccc1C#N : Mtb heat-shock: 41.85%
- CS(=O)(=O)N1CC2(CCCN2Cc2ccc(Cl)cc2)Cc2ccccc21 (configuration not stated) : Mtb heat-shock: -14.15%
- CC(C)C(Sc1nnc(C2CC2)n1C1CC1)C(=O)NCc1cccnc1 (configuration not stated) : Mtb growth Cornell: -5.831%; Mtb heat-shock: 9.055%
- CC(NC(=O)C(C)(C)C)c1cc(O)nc(-c2cccnc2)n1 (configuration not stated) : Mtb growth Cornell: 47.54%; Mtb heat-shock: 11.04%